Results deposited as PubChem BioAssay AID1224831 (NIAID, 2016)

Assay: 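Genes that support or restrain LPS-induced TNF-alpha reporter activity in macrophage-like cells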 (follow-up of hits)
Cell system: human THP-1 B5 monocytic leukaemia cells carrying a TNF promoter luciferase reporter, made macrophage-like with PMA
Knock-down reagent: single siRNA against human genes, 50 nM
Time to read-out: about 68 h of knock-down, then 4 h LPS
Treatment: LPS (Salmonella minnesota, TLR-grade) at 10 ng/ml for 4 h; PMA 5 ng/ml present during knock-down
Read-out: 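TNF promoter reporter read as dual luciferase ratio after 4 h LPS, normalised per plate to its median, given as replicate mean robust z-score per siRNA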
Reading the numbers: TNF reporter z-score: higher = stronger LPS-induced TNF reporter signal; z-score, median over gene's siRNAs: higher = stronger TNF reporter signal across the gene's siRNAs
Hit rule: 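Two-sided call: reduced or raised TNF reporter signal counts as active once mean z reaches about -1 or below, or about 1.5 or above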
Meaning of the calls: active = changed TNF reporter (either direction); inactive = little change
Here is an unselected part of about 3,500 deposited reagents. Over the whole deposit, 731 (21%) got an active call. 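Active means either lowered or raised reporter signal; the gene-median score did not drive the per-siRNA calls.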 Reagents against one gene are numbered here.

no.	gene	reagent	TNF reporter z-score, replicate mean	z-score, median over gene's siRNAs	activity call
1	CFLAR	1	-2.03	-1.15	active
2	CFLAR	2	-1.44	-1.15	active
3	CFLAR	3	-2.12	-1.15	active
4	CFLAR	4	1.45	-1.15	inactive
5	CFLAR	5	-0.62	-1.15	inactive
6	CFLAR	6	-0.85	-1.15	inactive
7	CSGALNACT1	1	1.31	-0.175	inactive
8	CSGALNACT1	2	-0.39	-0.175	inactive
9	CSGALNACT1	3	-1.02	-0.175	active
10	CSGALNACT1	4	-0.41	-0.175	inactive
11	CSGALNACT1	5	3.84	-0.175	active
12	CSGALNACT1	6	0.04	-0.175	inactive
13	CINP	1	0.16	0.195	inactive
14	CINP	2	0.23	0.195	inactive
15	CINP	3	-0.4	0.195	inactive
16	CINP	4	-0.2	0.195	inactive
17	CINP	5	1.03	0.195	inactive
18	CINP	6	2.74	0.195	active
19	THNSL1	1	0.28	0.755	inactive
20	THNSL1	2	2.24	0.755	active
21	THNSL1	3	-0.87	0.755	inactive
22	THNSL1	4	-0.32	0.755	inactive
23	THNSL1	5	1.62	0.755	active
24	THNSL1	6	1.23	0.755	inactive
25	UMOD	1	-0.96	-0.15	inactive
26	UMOD	2	-0.44	-0.15	inactive
27	UMOD	3	0.9	-0.15	inactive
28	UMOD	4	-0.44	-0.15	inactive
29	UMOD	5	0.14	-0.15	inactive
30	UMOD	6	0.38	-0.15	inactive
31	TCAP	1	6.47	-0.075	active
32	TCAP	2	-3.09	-0.075	active
33	TCAP	3	-0.42	-0.075	inactive
34	TCAP	4	0.54	-0.075	inactive
35	TCAP	5	-0.64	-0.075	inactive
36	TCAP	6	0.27	-0.075	inactive
37	DHX16	1	0.64	0.34	inactive
38	DHX16	2	0.4	0.34	inactive
39	DHX16	3	0.28	0.34	inactive
40	DHX16	4	0.21	0.34	inactive
41	DHX16	5	-0.19	0.34	inactive
42	DHX16	6	3.55	0.34	active
43	TCF19	1	3.15	1.27	active
44	TCF19	2	1.91	1.27	active
45	TCF19	3	1.36	1.27	inactive
46	TCF19	4	1.18	1.27	inactive
47	TCF19	5	-0.06	1.27	inactive
48	TCF19	6	0.17	1.27	inactive
49	INIP	1	0.49	0.61	inactive
50	INIP	2	-0.73	0.61	inactive
51	INIP	3	0.73	0.61	inactive
52	INIP	4	3.42	0.61	active
53	INIP	5	1.61	0.61	active
54	INIP	6	0.16	0.61	inactive
55	AGTR2	1	1.83	0.185	active
56	AGTR2	2	-0.44	0.185	inactive
57	AGTR2	3	-0.6	0.185	inactive
58	AGTR2	4	0.81	0.185	inactive
59	AGTR2	5	1.12	0.185	inactive
60	AGTR2	6	-0.54	0.185	inactive
61	KRTAP12-4	1	0.53	-0.075	inactive
62	KRTAP12-4	2	1.33	-0.075	inactive
63	KRTAP12-4	3	0.17	-0.075	inactive
64	KRTAP12-4	4	-1.63	-0.075	active
65	KRTAP12-4	5	-0.56	-0.075	inactive
66	KRTAP12-4	6	-0.32	-0.075	inactive
67	PLSCR2	1	-0.18	0.145	inactive
68	PLSCR2	2	0.79	0.145	inactive
69	PLSCR2	3	-0.8	0.145	inactive
70	PLSCR2	4	2.87	0.145	active
71	PLSCR2	5	0.29	0.145	inactive
72	PLSCR2	6	0	0.145	inactive
73	CPNE5	1	0.02	0.05	inactive
74	CPNE5	2	0.84	0.05	inactive
75	CPNE5	3	0.03	0.05	inactive
76	CPNE5	4	-0.2	0.05	inactive
77	CPNE5	5	0.07	0.05	inactive
78	CPNE5	6	1.02	0.05	inactive
79	ORM2	1	0.28	0.07	inactive
80	ORM2	2	-0.24	0.07	inactive
81	ORM2	3	1.88	0.07	active
82	ORM2	4	-0.14	0.07	inactive
83	ORM2	5	0.48	0.07	inactive
84	ORM2	6	-0.92	0.07	inactive
